Measurements from “University of Dundee, Small-Polar-MMV Screening Library” (2021), ChEMBL document CHEMBL3988442.

Protein sequences, listed by entry. Tags and fused reporters are not part of them.
UniProt E9BF75, entry or part of it: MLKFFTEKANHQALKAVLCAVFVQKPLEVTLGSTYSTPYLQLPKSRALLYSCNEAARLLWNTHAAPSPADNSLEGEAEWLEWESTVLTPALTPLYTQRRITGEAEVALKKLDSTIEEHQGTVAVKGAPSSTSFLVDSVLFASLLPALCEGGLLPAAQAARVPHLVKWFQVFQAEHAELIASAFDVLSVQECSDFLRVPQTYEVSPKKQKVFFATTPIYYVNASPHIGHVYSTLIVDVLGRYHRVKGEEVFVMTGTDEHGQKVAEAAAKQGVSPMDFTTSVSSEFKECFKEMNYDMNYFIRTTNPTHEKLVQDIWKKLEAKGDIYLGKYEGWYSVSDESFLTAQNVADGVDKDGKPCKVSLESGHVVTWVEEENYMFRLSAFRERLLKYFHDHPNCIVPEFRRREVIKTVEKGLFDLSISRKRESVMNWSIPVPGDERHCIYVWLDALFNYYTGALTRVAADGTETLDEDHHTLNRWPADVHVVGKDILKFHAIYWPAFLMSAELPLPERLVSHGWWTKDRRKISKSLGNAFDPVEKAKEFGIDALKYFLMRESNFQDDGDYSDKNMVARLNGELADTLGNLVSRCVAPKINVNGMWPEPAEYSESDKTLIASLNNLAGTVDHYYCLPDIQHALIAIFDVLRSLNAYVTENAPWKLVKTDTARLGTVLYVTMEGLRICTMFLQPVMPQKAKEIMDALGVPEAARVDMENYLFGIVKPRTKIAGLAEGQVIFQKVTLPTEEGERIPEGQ

Results are percentages, as filed. The controls that fix the scale are not given in the record; negative values are as filed. Compounds were drawn at random from those tested, without regard to their results. A dash means the value is not listed here; it may have been measured.

A: 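Primary screen of methionyl-tRNA synthetase; the read-out is not stated. Target: Methionyl-tRNA synthetase (putative), Leishmania donovani (UniProt E9BF75). The test concentration is not given. The values are filed as inhibition. Of about 68,000 compounds tested this way, about 24 (0.035%) reached 50% or more in at least one test.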
B: 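Assay on Mycobacterium tuberculosis, filed only as a heat shock assay from Cornell; the read-out is not stated. The concentration is filed as 10 mM, unlikely as a test dose, so the dose is not known. Direction is inferred from retests: higher values go with stronger inhibition. Size under these conditions: about 69,000 compounds, about 930 of them at 50% or above in at least one test.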

| structure | A | B |
|---|---|---|
| `[H][C@@]12C[C@H](C(=O)NCc3ccccc3)[C@@]([H])(CN(S(=O)(=O)CC(C)C)C1)O2` | - | 14.59% |
| `CC(Oc1ccc(C(=O)NCCNS(C)(=O)=O)cn1)c1ccccc1` (stereo not given) | 8.791% | -8.822% |
| `CS(=O)(=O)N1CCCC1c1cccc(Nc2nccs2)n1` (stereo not given) | 10.32% | 92.85% |
| `CC(C)NC(=O)c1ccn(COc2c(Cl)cccc2Cl)n1` | 11.61% | -6.798% |
| `CCn1cc(S(=O)(=O)N2CCN(S(=O)(=O)c3ccc(Br)s3)CC2)c(C)n1` | 10.51% | 11.63% |
| `CO[C@H]1CO[C@@]2(CCCN(C(=O)C3=CCCCC3)C2)C1` | 17.99% | -9.588% |
| `CC(C)c1nc2n(n1)CC(Nc1ncnc3c1CCC3)CC2` (stereo not given) | 8.447% | 4.642% |
| `COc1cc(C)nc(N2CCN(Cc3nccn3C)CC2)n1` | 11.5% | -4.259% |
| `CCN(Cc1noc(CC(C)C)n1)C[C@]1(O)CCCN2CCCC[C@@H]21` | 5.025% | - |
| `O=C(CCSc1ccccc1F)NCc1cccnc1` | 8.871% | -14.37% |
| `CCn1ncc2c1C(COCC1CC1)CN(c1ccncn1)C2` (stereo not given) | 9.15% | - |
| `CCN(CC)S(=O)(=O)N1CCc2nc(C3CCNCC3)ncc2C1` | 18.64% | - |
| `O=C(NCC(O)(c1ccco1)C1CC1)c1c(F)cccc1Cl` (stereo not given) | 16.38% | 1.84% |
| `CN(Cc1ccccc1Cl)C(C(=O)O)c1ccc(F)c(CO)c1` (stereo not given) | 16.08% | 2.292% |
| `CN1CCN2C[C@@H](CO)[C@H](c3ccccc3)[C@H]2C1` | 14.52% | - |
| `O=C(c1cnccn1)N1CCN(Cc2cscn2)CC1` | 21.27% | -16.75% |
| `O=C(O)C(F)(F)F.[H][C@@]12CCN(S(=O)(=O)c3ccccc3)CC[C@]1(C(=O)N(C)C)CCN2CC` | - | -1.414% |
| `O=C(O)C(F)(F)F.[H][C@@]12CN(Cc3cnn(C)c3)CCO[C@]1([H])CN(S(=O)(=O)CCC)C2` | - | -1.719% |
| `Cc1nc2c(c(N3C[C@@H](C)[C@@](C)(O)C3)n1)CCC2` | -5.842% | -4.056% |
| `CCn1nc(-c2ccccc2F)ccc1=O` | 10.78% | -5.29% |
| `O=C1CO[C@@H]2CN(Cc3cccs3)C[C@H]2N1Cc1cccnc1` | 2.614% | - |
| `Cc1cnc(NC(=O)c2csc(NC3CCCC3)n2)s1` | 14.42% | 106.1% |
| `Cc1cnc(-c2nc(O)c3c(n2)CN(C(=O)C2CCCO2)CC3)cn1` (stereo not given) | 16.46% | -7.677% |
| `CC(=O)N1CCC2(CC1)CC(N1CCOCC1)c1ccc(C)cc12.O=C(O)C(F)(F)F` (stereo not given) | - | -12.6% |
| `O=C(O)C(F)(F)F.O=C(O)C(F)(F)F.O=C(O)C(F)(F)F.c1cncc(C[C@H]2[C@H](N3CCOCC3)CCN2Cc2cccs2)c1` | - | -41.7% |
| `CCn1c(CN(C)C(C)CSC)nc2c(F)cccc21` (stereo not given) | 6.354% | 39.61% |
| `COC(=O)CCC(=O)NCc1cccnc1N1CCc2ccccc2C1` | 6.137% | -8.693% |
| `O=C(O)C(F)(F)F.O=C(O)C(F)(F)F.[H][C@@]12CN(Cc3cccnc3)C[C@H](C(=O)N3CCCO3)[C@]1([H])CCO2` | - | -51.18% |
| `Cc1ccc(C)c(C(=O)NC2CCC(N3C(=O)CCC3=O)CC2)c1` (stereo not given) | 4.963% | -3.305% |
| `O=C(O)C(F)(F)F.[H][C@]12C[C@H](C(=O)NC)N(C)[C@@]1([H])CN(S(=O)(=O)c1ccc(C)c(F)c1)C2` | - | -16.73% |
| `CN(C)[C@@H]1CCN(S(=O)(=O)c2cn(C)cn2)[C@H]1Cc1cccnc1.O=C(O)C(F)(F)F.O=C(O)C(F)(F)F.O=C(O)C(F)(F)F` | - | -40.1% |
| `O=C(CNC(=O)c1cnccn1)Nc1ncc[nH]1` | 10.61% | 6.368% |
| `CC(CCSc1ccccc1)N1CCN(C(=O)c2ccccc2O)CC1` (stereo not given) | 3.191% | 35.88% |
| `OC(CN(Cc1ccccc1)Cc1ccon1)c1cccs1` (stereo not given) | 10.11% | -12.23% |
| `[H][C@@]12CCCO[C@]1([H])[C@@H](Oc1cccnc1)CN2C(=O)C1=CCCC1` | - | -2.338% |
| `CS(=O)(=O)N1CCCC(C(=O)Nc2cnn(Cc3ccc(Cl)cc3)c2)C1` (stereo not given) | 8.919% | -9.787% |
| `CNC(=O)CN1CCO[C@H]2CN(C(=O)c3ccncc3F)C[C@H]21` | 11.59% | - |
| `c1cc(CNCC2Cn3nncc3CO2)co1` (stereo not given) | 9.774% | - |
| `COC[C@@H]1CCC[C@]12CN(Cc1ccco1)CCO2.O=C(O)C(F)(F)F` | - | -13.34% |
| `COc1ccc(-c2cc[nH]n2)cc1CNC1CCCC1` | -0.7371% | -18.75% |
| `O=C(O)C(F)(F)F.[H][C@@]12CCN(Cc3ccsc3)[C@]1([H])CC[C@H](C(=O)N1CCOCC1)O2` | - | -20.94% |
| `CS(=O)(=O)N1CCC(c2nnc3ccc(C(=O)N4CCCC4)cn23)C1` (stereo not given) | 4.721% | -4.515% |
| `CO[C@H]1CO[C@@]2(CCCN(C(=O)N3CCCC3)C2)C1` | 12.4% | 37.06% |
| `NC(=O)CN1CCCC(c2ccnc(Nc3ncccn3)c2)C1` (stereo not given) | -29.06% | -22.4% |
| `CCOc1ccccc1C(N)CC(C)C` (stereo not given) | 5.155% | 6.467% |
| `[H][C@@]12CS(=O)(=O)C[C@]1([H])N(C(=O)C1(C)CC1)CCN2Cc1[nH]cnc1C` | - | -10.66% |
| `Cc1cccc(CN2CC3(CCN(C(=O)N(C)C)CC3)OCC2=O)n1.O=C(O)C(F)(F)F` | - | -24.23% |
| `COc1ccc2c(c1)CC(NC(=O)NCc1cccs1)CO2` (stereo not given) | 16.67% | 13.53% |
| `Cc1nn(C(C)C)c(C)c1CN1CCN(C2CCCCC2)C(=O)C1.O=C(O)CC(O)(CC(=O)O)C(=O)O` | - | 12.44% |
| `Cc1oc(-c2ccco2)nc1CC(=O)N1CCN(CC(C)(C)O)CC1` | 13.19% | 0.9565% |
| `OC(COCc1cccs1)Cn1cc(Br)cn1` (stereo not given) | 11.27% | 2.418% |
| `CCS(=O)(=O)N1C[C@H]2CC[C@@]3(N=C(C)N(CC(C)C)C3=O)[C@H]2C1` | 6.667% | - |
| `Cc1ccc(CN2CCc3c(CN(C)C)n[nH]c3C2)s1` | 18.25% | - |
| `CCn1cc(CNC2CC(=O)N(CCc3cccc(Cl)c3)C2)cn1` (stereo not given) | 15.5% | -35.77% |
| `CC(C)n1nc2c(cc1=O)CN(c1ncnc3ccccc13)CC2` | 16.4% | 19.08% |
| `CCC(NC(=O)C(C)(C)C)c1ccccc1C` (stereo not given) | 7.619% | -8.291% |
| `CCCN1CCN(C(=O)c2ccc(Cl)cn2)[C@H]2CS(=O)(=O)C[C@H]21` | 12.09% | - |
| `CC(Cn1ccnc1)NCc1cc(Br)c2c(c1)OCO2.Cl` (stereo not given) | - | -15.88% |
| `O=c1cc(N2CCOCC2)cnn1CCc1ccc(F)cc1` | 4.861% | 23.96% |
| `O=C(Cc1cccc(F)c1)N1C[C@H]2CN(Cc3cccnc3)C[C@H]2C1` | 12.32% | - |
| `Cc1cccc(N(CCC(N)=O)C(=O)c2cc(-n3cccn3)ccn2)c1` | 16.72% | 21.83% |
| `Cn1nnnc1SCC(=O)N1CCN(C(=O)C2CC2c2cccs2)CC1` (stereo not given) | 10.79% | -2.171% |
| `NCCc1cn(Cc2ccccn2)c2ccccc12` | 14.17% | - |
| `C[C@H]1C[C@@H]2CCN(CC3CCOCC3)C[C@H]2O1` | -4.762% | - |
| `CC(=O)N1CCN(Cc2ccc(F)cc2)CC2(CC(=O)N(C)C2)C1` (stereo not given) | -3.526% | - |
| `Cc1ccccc1OCC(O)C(=O)N1CCC2(CC1)CN(C)C(=O)O2` (stereo not given) | 3.194% | 11.89% |
| `CCCOc1cc(CNC(=O)Nc2cccc(C(C)=O)c2)ccn1` | 15.36% | 10.43% |
| `CCn1cc(C(=O)N2CCOC(c3nc(-c4cccs4)no3)C2)cn1` (stereo not given) | 9.647% | -6.472% |
| `CC1=Nc2c(c(=O)[nH]n2C(C)C)C(c2ccc3nccnc3c2)S1` (stereo not given) | 18.48% | 13.64% |
| `Cc1nn(COc2cccc(F)c2)c(C)c1NC(=O)C1CC1` | 11.05% | 4.588% |
| `CC(=O)NC1CCCN(C(=O)NCc2ccc(-c3ccn[nH]3)cc2)C1` (stereo not given) | 10.24% | -27.5% |
| `O=C(O)CCC(=O)N1CCC(c2noc3cc(F)ccc23)CC1` | 7.317% | 69.92% |
| `COCc1ccccc1C(=O)NCCCN1CCCC1C(=O)N(C)C` (stereo not given) | 1.478% | -6.44% |
| `CC(C)NC(=O)c1ccc2c(c1)C1(CCN(C)CC1)C(=O)N2` | 9.645% | - |
| `COC(=O)C1CN(Cc2ccc(-c3ccncc3)cc2F)C[C@@H](C)O1` (stereo not given in full) | 7.796% | -20.04% |
| `Cc1nnc([C@@H]2CC[C@@H]3[C@@H](CCN3S(=O)(=O)C3CC3)O2)o1` | 13.02% | - |
| `CC(=O)N1CCCC2(CN(Cc3ccncc3)CCO2)C1` (stereo not given) | 13.33% | -3.699% |
| `CC(C)Cn1cnnc1C1CCCN1C(=O)c1cc2ccccn2c1` (stereo not given) | 5.108% | 4.179% |
| `COCCC(=O)N1CCC(NC(=O)c2cscc2C)CC1` | 3.509% | -0.7045% |
| `Cc1ccccc1-n1c(C)cc(C(=O)N2CCn3c(C)nnc3C2)c1C` | 24.57% | 3.336% |
| `CN(Cc1nccn1C)c1nccc(N2CCCC(O)C2)n1` (stereo not given) | 7.216% | 3.033% |
| `CC(C)C(=O)NCCCn1ncc2c(Cl)cccc21` | 12.6% | 4.655% |
| `c1ccc2c(c1)CC(n1ccnc1-c1cc3n(n1)CCNC3)CO2` (stereo not given) | 9.045% | 0.6828% |

The last 6 entries again:

{"structure": "CC(C)Cn1cnnc1C1CCCN1C(=O)c1cc2ccccn2c1", "stereo": "stereo not given", "A": 5.108, "B": 4.179}
{"structure": "COCCC(=O)N1CCC(NC(=O)c2cscc2C)CC1", "A": 3.509, "B": -0.7045}
{"structure": "Cc1ccccc1-n1c(C)cc(C(=O)N2CCn3c(C)nnc3C2)c1C", "A": 24.57, "B": 3.336}
{"structure": "CN(Cc1nccn1C)c1nccc(N2CCCC(O)C2)n1", "stereo": "stereo not given", "A": 7.216, "B": 3.033}
{"structure": "CC(C)C(=O)NCCCn1ncc2c(Cl)cccc21", "A": 12.6, "B": 4.655}
{"structure": "c1ccc2c(c1)CC(n1ccnc1-c1cc3n(n1)CCNC3)CO2", "stereo": "stereo not given", "A": 9.045, "B": 0.6828}